Taken from: PubChem BioAssay AID652243 (Drosophila RNAi Screening Center, 2013)
The screen tested about 24,000 reagents; shown is an unselected part of those with a known target gene and a result. In the full data, 246 (1%) are marked active. 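Plates not normalised; calls are printed but the firefly/Renilla ratio behind them is not deposited; fold cut for lowering reported inconsistently.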 Raw values vary from plate to plate and are shown uncorrected. Not given: the amount of reagent.

- Assay: 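Fly regulators of androgen-dependent reporter output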 (primary screen)
- System: Drosophila S2R+ cells
- Reagent: long dsRNA against Drosophila genes
- Timing: 72 h (48 h, then 24 h hormone)
- Challenge: synthetic androgen R1881 at 10 nM for 24 h
- Read-out: 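Per-well raw luminescence of the androgen-driven firefly reporter and of the Renilla control, two replicates each, without normalisation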
- Scale: firefly reporter light: higher = more light from androgen-responsive reporter; Renilla control light: higher = more constitutive control signal (cell number, transfection)
- Call rule: 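Across duplicate plates, a knock-down whose log firefly/Renilla ratio shifted a set fold down or up from the GFP/LacZ control mean was a hit; the downward cut appears as both 1.5 and 3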
- Calls: active = hit: reporter lowered or raised; inactive = no hit

CG31200 [DRSC15285]: firefly reporter light, replicate 1 = 2.72e5; firefly reporter light, replicate 2 = 2.45e5; Renilla control light, replicate 1 = 2.94e6; Renilla control light, replicate 2 = 3.49e6; call = inactive
Corin [DRSC06818]: firefly reporter light, replicate 1 = 5.51e5; firefly reporter light, replicate 2 = 1.02e6; Renilla control light, replicate 1 = 1.10e6; Renilla control light, replicate 2 = 2.42e6; call = inactive
Corin [DRSC28927]: firefly reporter light, replicate 1 = 3.94e5; firefly reporter light, replicate 2 = 5.76e5; Renilla control light, replicate 1 = 1.15e6; Renilla control light, replicate 2 = 1.20e6; call = inactive
CG32117 [DRSC21652]: firefly reporter light, replicate 1 = 9.42e5; firefly reporter light, replicate 2 = 8.77e5; Renilla control light, replicate 1 = 2.39e6; Renilla control light, replicate 2 = 2.14e6; call = inactive
Alg14 [DRSC19983]: firefly reporter light, replicate 1 = 4.70e5; firefly reporter light, replicate 2 = 3.92e5; Renilla control light, replicate 1 = 2.23e6; Renilla control light, replicate 2 = 2.83e6; call = inactive
Grip91 [DRSC20249]: firefly reporter light, replicate 1 = 43101; firefly reporter light, replicate 2 = 49573; Renilla control light, replicate 1 = 4.07e5; Renilla control light, replicate 2 = 4.00e5; call = inactive
Rich [DRSC11607]: firefly reporter light, replicate 1 = 34613; firefly reporter light, replicate 2 = 53542; Renilla control light, replicate 1 = 3.45e5; Renilla control light, replicate 2 = 3.51e5; call = inactive
Rich [DRSC28514]: firefly reporter light, replicate 1 = 2.79e5; firefly reporter light, replicate 2 = 4.75e5; Renilla control light, replicate 1 = 7.43e5; Renilla control light, replicate 2 = 1.34e6; call = inactive
CG5916 [DRSC15917]: firefly reporter light, replicate 1 = 86369; firefly reporter light, replicate 2 = 59261; Renilla control light, replicate 1 = 5.98e5; Renilla control light, replicate 2 = 4.23e5; call = inactive
Sf3a1 [DRSC15166]: firefly reporter light, replicate 1 = 84590; firefly reporter light, replicate 2 = 54763; Renilla control light, replicate 1 = 5.70e5; Renilla control light, replicate 2 = 5.11e5; call = inactive
CG34126 [DRSC02726]: firefly reporter light, replicate 1 = 1.93e5; firefly reporter light, replicate 2 = 1.68e5; Renilla control light, replicate 1 = 2.29e6; Renilla control light, replicate 2 = 1.32e6; call = inactive
CG34126 [DRSC22079]: firefly reporter light, replicate 1 = 7.79e5; firefly reporter light, replicate 2 = 9.13e5; Renilla control light, replicate 1 = 3.90e5; Renilla control light, replicate 2 = 3.14e5; call = inactive

As entered above.
CG32117 [DRSC21652], firefly reporter light, replicate 1: 9.42e5
Under “firefly reporter light, replicate 2”, CG34126 [DRSC22079] reads 9.13e5
